Read-outs that look alike come from different tables or passages of the source. These are yes or no findings as the source states them, for the method shown. In cells and extracts the contact can be indirect. Some entries that bind do so weakly or less than the wild type.

Protein sequences, listed by entry. Tags and fused reporters are not part of them. Lines headed by an entry give the natural chain unless they say otherwise; changes in a name come on top.
UniProt Q04899: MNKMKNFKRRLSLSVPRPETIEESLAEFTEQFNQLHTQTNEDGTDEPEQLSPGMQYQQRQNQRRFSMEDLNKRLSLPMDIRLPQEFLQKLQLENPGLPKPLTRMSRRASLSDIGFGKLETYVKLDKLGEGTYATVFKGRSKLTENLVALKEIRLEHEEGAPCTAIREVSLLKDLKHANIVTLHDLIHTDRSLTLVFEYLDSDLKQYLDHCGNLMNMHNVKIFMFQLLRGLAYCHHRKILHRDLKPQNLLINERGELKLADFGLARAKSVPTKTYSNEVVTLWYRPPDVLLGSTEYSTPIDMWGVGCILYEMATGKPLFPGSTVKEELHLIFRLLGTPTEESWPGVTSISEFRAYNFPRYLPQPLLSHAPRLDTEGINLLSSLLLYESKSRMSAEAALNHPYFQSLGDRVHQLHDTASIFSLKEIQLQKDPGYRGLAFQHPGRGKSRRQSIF
UniProt P49023: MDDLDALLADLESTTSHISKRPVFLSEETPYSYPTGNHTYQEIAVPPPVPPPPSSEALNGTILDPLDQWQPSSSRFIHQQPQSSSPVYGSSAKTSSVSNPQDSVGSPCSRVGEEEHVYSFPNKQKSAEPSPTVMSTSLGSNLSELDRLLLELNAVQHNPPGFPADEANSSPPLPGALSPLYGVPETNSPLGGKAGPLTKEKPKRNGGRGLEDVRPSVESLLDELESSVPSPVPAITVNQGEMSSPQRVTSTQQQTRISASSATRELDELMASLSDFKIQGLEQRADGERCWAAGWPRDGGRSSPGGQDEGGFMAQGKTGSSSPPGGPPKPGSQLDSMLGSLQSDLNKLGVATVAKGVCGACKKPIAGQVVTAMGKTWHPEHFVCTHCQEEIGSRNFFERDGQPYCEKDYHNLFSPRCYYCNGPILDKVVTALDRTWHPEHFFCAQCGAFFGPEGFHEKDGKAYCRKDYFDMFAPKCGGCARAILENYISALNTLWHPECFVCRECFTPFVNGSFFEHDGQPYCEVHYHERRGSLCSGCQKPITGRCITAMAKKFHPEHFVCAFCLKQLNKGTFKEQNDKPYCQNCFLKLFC
UniProt Q05397: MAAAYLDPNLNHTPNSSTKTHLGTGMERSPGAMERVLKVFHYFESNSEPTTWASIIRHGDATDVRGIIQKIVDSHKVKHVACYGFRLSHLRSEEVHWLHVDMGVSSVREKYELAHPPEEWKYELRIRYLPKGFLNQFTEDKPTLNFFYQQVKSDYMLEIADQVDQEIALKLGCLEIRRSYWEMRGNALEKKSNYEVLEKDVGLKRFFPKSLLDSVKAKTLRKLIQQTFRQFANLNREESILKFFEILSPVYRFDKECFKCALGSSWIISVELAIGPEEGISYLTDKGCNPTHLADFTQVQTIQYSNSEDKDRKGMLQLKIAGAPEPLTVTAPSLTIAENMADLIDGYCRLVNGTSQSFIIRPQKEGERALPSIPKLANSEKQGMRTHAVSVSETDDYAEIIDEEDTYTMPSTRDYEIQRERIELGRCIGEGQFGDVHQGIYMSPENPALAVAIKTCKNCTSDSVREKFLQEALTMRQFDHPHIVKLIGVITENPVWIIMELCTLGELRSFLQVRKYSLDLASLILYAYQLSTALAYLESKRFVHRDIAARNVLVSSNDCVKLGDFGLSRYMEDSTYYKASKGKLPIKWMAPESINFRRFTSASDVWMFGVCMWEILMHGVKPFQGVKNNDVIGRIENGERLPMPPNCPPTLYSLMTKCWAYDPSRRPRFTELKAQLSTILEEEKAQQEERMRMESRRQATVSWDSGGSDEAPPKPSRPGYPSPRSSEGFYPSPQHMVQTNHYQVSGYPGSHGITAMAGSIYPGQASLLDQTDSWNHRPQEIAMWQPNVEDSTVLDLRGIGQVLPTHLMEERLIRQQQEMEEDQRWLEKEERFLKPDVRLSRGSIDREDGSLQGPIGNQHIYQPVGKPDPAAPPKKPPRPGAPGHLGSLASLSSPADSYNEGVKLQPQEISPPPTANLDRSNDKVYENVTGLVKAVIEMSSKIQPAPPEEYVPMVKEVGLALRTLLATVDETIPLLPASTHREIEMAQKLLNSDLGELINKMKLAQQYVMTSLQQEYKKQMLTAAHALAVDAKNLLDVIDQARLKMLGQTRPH
UniProt Q9Y490: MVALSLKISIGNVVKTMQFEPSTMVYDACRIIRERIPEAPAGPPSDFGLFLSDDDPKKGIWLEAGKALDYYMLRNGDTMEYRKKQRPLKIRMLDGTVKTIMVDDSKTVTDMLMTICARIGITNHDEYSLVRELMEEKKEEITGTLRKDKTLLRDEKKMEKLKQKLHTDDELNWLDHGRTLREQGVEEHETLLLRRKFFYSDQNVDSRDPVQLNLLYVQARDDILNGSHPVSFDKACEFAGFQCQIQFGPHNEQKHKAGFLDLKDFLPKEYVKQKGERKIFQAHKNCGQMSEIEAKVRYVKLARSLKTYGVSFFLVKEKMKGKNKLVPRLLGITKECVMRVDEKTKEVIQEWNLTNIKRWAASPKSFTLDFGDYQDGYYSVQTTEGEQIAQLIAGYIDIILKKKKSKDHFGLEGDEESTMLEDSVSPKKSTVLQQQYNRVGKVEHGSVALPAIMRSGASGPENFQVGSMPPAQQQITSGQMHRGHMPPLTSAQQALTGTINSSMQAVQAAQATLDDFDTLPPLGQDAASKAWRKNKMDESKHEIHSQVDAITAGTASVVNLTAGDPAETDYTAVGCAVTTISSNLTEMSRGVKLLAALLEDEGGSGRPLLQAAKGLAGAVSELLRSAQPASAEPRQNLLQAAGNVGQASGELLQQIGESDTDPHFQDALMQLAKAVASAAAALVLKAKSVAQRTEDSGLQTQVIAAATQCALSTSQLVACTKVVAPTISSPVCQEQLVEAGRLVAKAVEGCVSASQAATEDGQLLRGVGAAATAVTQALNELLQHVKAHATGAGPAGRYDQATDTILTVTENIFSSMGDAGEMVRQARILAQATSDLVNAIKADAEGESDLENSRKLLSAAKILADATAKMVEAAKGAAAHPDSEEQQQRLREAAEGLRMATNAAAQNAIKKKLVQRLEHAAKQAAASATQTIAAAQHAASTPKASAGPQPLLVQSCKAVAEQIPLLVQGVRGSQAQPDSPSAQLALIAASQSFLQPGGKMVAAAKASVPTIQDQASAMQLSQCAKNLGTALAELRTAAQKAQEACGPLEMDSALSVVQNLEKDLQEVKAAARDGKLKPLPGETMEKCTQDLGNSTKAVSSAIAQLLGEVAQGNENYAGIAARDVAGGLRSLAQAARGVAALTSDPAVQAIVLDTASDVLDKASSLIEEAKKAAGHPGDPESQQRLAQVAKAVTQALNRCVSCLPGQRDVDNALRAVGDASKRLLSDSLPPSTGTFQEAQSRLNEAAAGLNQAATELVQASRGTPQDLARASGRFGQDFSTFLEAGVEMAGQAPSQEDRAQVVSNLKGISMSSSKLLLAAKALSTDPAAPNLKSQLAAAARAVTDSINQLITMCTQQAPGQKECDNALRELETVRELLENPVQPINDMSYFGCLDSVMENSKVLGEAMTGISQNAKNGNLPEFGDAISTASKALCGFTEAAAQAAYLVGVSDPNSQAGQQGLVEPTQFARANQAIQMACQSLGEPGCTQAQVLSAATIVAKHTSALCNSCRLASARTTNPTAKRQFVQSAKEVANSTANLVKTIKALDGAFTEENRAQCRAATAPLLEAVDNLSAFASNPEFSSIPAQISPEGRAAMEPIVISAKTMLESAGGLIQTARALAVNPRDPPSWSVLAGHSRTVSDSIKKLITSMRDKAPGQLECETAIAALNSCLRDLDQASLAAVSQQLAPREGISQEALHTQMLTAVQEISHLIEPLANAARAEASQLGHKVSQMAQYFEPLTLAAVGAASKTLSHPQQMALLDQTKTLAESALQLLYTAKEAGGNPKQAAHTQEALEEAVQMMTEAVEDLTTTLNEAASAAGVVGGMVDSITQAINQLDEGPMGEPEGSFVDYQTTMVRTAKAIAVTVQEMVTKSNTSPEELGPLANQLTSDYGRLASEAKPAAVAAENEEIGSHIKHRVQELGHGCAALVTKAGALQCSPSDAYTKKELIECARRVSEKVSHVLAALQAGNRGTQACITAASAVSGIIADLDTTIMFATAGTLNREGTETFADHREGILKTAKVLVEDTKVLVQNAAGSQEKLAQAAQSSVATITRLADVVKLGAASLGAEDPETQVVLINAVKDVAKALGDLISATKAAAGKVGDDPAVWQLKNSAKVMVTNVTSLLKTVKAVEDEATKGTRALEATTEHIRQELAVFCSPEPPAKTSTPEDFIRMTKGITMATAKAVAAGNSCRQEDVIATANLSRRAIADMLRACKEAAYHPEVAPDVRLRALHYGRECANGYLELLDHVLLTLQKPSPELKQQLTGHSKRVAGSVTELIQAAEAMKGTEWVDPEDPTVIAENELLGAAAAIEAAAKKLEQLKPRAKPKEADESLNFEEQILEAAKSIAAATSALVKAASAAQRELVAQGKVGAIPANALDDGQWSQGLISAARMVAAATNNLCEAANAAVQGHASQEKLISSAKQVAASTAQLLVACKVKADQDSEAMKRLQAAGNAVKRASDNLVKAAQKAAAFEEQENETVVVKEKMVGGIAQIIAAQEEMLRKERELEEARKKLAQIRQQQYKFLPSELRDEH

What all share (assay): pull-down; Strep-tagged PCTK3 expressed in HEK293T; lysates (TNE buffer: 20 mM Tris-HCl pH 7.5, 150 mM NaCl, 0.5% Nonidet P-40, 1 mM EDTA) incubated with Strep-Tactin Sepharose at 4 °C overnight; bound endogenous proteins detected by immunoblot
On the technique in general: In western blotting, separated proteins are transferred to a membrane and probed.

Assay [1] concerns the target Strep-tagged PCTK3 wild type (PCTAIRE kinase 3/cyclin-dependent kinase 18) (mouse) (UniProt Q04899).
The target in assay [2] is Strep-tagged PCTK3 S12D mutant (constitutively active) (mouse) (UniProt Q04899).
Assay [3] deals with Strep-tagged PCTK3 wild type (PCTAIRE kinase 3/cyclin-dependent kinase 18) (mouse) (UniProt Q04899). The source holds these as a separate data set.

With paxillin (from UniProt P49023 1-591), in assay [1], the binding result is reported as “no binding”.
For the molecule “focal adhesion kinase (FAK) (from UniProt Q05397 1-1052) (enzyme)”, the results for the binding entry in assay [1] and in assay [2] were “binds weakly” and “no binding”, respectively.
For talin-1 (from UniProt Q9Y490 1-2541), in assay [1], the binding entry is reported as “no binding”.

B1: tensin-2 (protein, UniProt Q63HR2 1-1409)
chain: MKSSGPVERLLRALGRRDSSRAASRPRKAEPHSFREKVFRKKPPVCAVCKVTIDGTGVSCRVCKVATHRKCEAKVTSACQALPPVELRRNTAPVRRIEHLGSTKSLNHSKQRSTLPRSFSLDPLMERRWDLDLTYVTERILAAAFPARPDEQRHRGHLRELAHVLQSKHRDKYLLFNLSEKRHDLTRLNPKVQDFGWPELHAPPLDKLCSICKAMETWLSADPQHVVVLYCKGNKGKLGVIVSAYMHYSKISAGADQALATLTMRKFCEDKVATELQPSQRRYISYFSGLLSGSIRMNSSPLFLHYVLIPMLPAFEPGTGFQPFLKIYQSMQLVYTSGVYHIAGPGPQQLCISLEPALLLKGDVMVTCYHKGGRGTDRTLVFRVQFHTCTIHGPQLTFPKDQLDEAWTDERFPFQASVEFVFSSSPEKIKGSTPRNDPSVSVDYNTTEPAVRWDSYENFNQHHEDSVDGSLTHTRGPLDGSPYAQVQRPPRQTPPAPSPEPPPPPMLSVSSDSGHSSTLTTEPAAESPGRPPPTAAERQELDRLLGGCGVASGGRGAGRETAILDDEEQPTVGGGPHLGVYPGHRPGLSRHCSCRQGYREPCGVPNGGYYRPEGTLERRRLAYGGYEGSPQGYAEASMEKRRLCRSLSEGLYPYPPEMGKPATGDFGYRAPGYREVVILEDPGLPALYPCPACEEKLALPTAALYGLRLEREAGEGWASEAGKPLLHPVRPGHPLPLLLPACGHHHAPMPDYSCLKPPKAGEEGHEGCSYTMCPEGRYGHPGYPALVTYSYGGAVPSYCPAYGRVPHSCGSPGEGRGYPSPGAHSPRAGSISPGSPPYPQSRKLSYEIPTEEGGDRYPLPGHLASAGPLASAESLEPVSWREGPSGHSTLPRSPRDAPCSASSELSGPSTPLHTSSPVQGKESTRRQDTRSPTSAPTQRLSPGEALPPVSQAGTGKAPELPSGSGPEPLAPSPVSPTFPPSSPSDWPQERSPGGHSDGASPRSPVPTTLPGLRHAPWQGPRGPPDSPDGSPLTPVPSQMPWLVASPEPPQSSPTPAFPLAASYDTNGLSQPPLPEKRHLPGPGQQPGPWGPEQASSPARGISHHVTFAPLLSDNVPQTPEPPTQESQSNVKFVQDTSKFWYKPHLSRDQAIALLKDKDPGAFLIRDSHSFQGAYGLALKVATPPPSAQPWKGDPVEQLVRHFLIETGPKGVKIKGCPSEPYFGSLSALVSQHSISPISLPCCLRIPSKDPLEETPEAPVPTNMSTAADLLRQGAACSVLYLTSVETESLTGPQAVARASSAALSCSPRPTPAVVHFKVSAQGITLTDNQRKLFFRRHYPVNSITFSSTDPQDRRWTNPDGTTSKIFGFVAKKPGSPWENVCHLFAELDPDQPAGAIVTFITKVLLGQRK
Take B1: the binding entry in assay [3] is on record as “no binding”.

The values above are taken from article PMC5374530.
